Laboratory results: PubChem BioAssay AID1053208 (Peter MacCallum Cancer Centre, 2014)

- Aim: 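Find knock-downs that sensitise mouse osteosarcoma cells to doxorubicin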 (primary screen)
- System: mouse osteosarcoma cells, early-passage culture from an engineered mouse model of fibroblastic bone tumour
- Reagents: siRNA pool against mouse genes, 40 nM
- Timing: about 120 h (48 h before drug, then 72 h with drug)
- Challenge: doxorubicin 100 nM for 72 h, roughly 30-40% inhibitory dose
- Detection: 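Luminescent ATP signal taken as viability with or without 100 nM doxorubicin for 72 h; mean of two wells set against non-targeting siRNA and turned into robust z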
- Reading the numbers: viability z-score with doxorubicin and doxorubicin viability vs non-targeting: higher = more viable cells under doxorubicin; viability z-score without drug: higher = more viable cells with knock-down alone; z-score of drug to no-drug ratio: higher = less drug sensitisation by knock-down
- Active means: 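Called active if knock-down leaves viability unchanged without drug (z within -2 to 2) but lowers it with doxorubicin (z at or under -2)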
Shown is an unselected part of about 17,000 reagents. Over the whole deposit, 788 (4.7%) are marked active. 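Calls rest on z-score classes alone; an extra cut-off of viability at most 70% of control was not applied to them.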 A number with no mark means an inactive call. No sequences are given here.

gene symbol | combined z-score class | viability z-score with doxorubicin | viability z-score without drug | z-score of drug to no-drug ratio | doxorubicin viability vs non-targeting
Mrpl4 (mitochondrial ribosomal protein L4) | low cell count with and without drug | -2.02 | -2.19 | -0.56 | 0.76
Ctnna1 (catenin alpha 1) | no change with or without drug | -0.9 | 1.18 | -1.57 | 0.86
Cln5 (ceroid-lipofuscinosis, neuronal 5) | no change with or without drug | -0.34 | -1.01 | 0.45 | 0.91
4930515G01Rik (RIKEN cDNA 4930515G01 gene) | low cell count with doxorubicin only (active) | -2.92 | 1.85 | -3.82 | 0.68
Serinc5 (serine incorporator 5) | no change with or without drug | -0.11 | -1.35 | 1.01 | 0.93
Zfp41 (zinc finger protein 41) | no change with or without drug | 1.69 | 1.35 | 0.9 | 1.09
Irf4 (interferon regulatory factor 4) | no change with or without drug | 0.9 | -0.17 | 1.24 | 1.02
Myom1 (myomesin 1) | no change with or without drug | 0 | -0.84 | 0.67 | 0.94
Art3 (ADP-ribosyltransferase 3) | no change with or without drug | 1.35 | 1.69 | 0.34 | 1.06
Dlx5 (distal-less homeobox 5) | no change with or without drug | 1.35 | -0.17 | 1.69 | 1.06
Ankrd69 (ankyrin repeat domain 69) | no change with or without drug | -1.35 | 1.52 | -2.14 | 0.82
Clk4 (CDC like kinase 4) | no change with or without drug | -0.22 | 0.17 | -0.22 | 0.92
Mdga1 (MAM domain containing glycosylphosphatidylinositol anchor 1) | low cell count without drug only | -0.22 | -2.87 | 2.25 | 0.92
Sfrp4 (secreted frizzled-related protein 4) | no change with or without drug | 0.67 | 0.34 | 0.56 | 1
TRPM3 | no change with or without drug | -1.35 | -0.17 | -1.24 | 0.82
Sub1 (SUB1 homolog, transcriptional regulator) | no change with or without drug | 0.45 | 0 | 0.56 | 0.98
Sp8 (trans-acting transcription factor 8) | no change with or without drug | -1.46 | -1.52 | -0.45 | 0.81
Trpv2 | no change with or without drug | 0.67 | 1.18 | 0 | 1
Doc2b (double C2, beta) | no change with or without drug | 0.56 | 1.69 | -0.45 | 0.99
Id4 (inhibitor of DNA binding 4) | no change with or without drug | -1.35 | -1.35 | -0.45 | 0.82
Paqr4 (progestin and adipoQ receptor family member IV) | no change with or without drug | -1.57 | -1.52 | -0.56 | 0.8
Ccdc184 (coiled-coil domain containing 184) | no change with or without drug | 1.01 | -0.34 | 1.46 | 1.03
Slco1a5 | no change with or without drug | 0.9 | -0.17 | 1.24 | 1.02
Cyp1b1 (cytochrome P450, family 1, subfamily b, polypeptide 1) | no change with or without drug | 0 | -0.67 | 0.56 | 0.94
Tex46 (testis expressed 46) | no change with or without drug | 0.34 | -0.17 | 0.56 | 0.97
Fbxo6 (F-box protein 6) | no change with or without drug | -0.22 | -0.17 | 0 | 0.92
Clec12a (C-type lectin domain family 12, member a) | low cell count with doxorubicin only (active) | -2.25 | -1.18 | -1.57 | 0.74
Ptpn4 (protein tyrosine phosphatase, non-receptor type 4) | no change with or without drug | 0.9 | -0.17 | 1.24 | 1.02
Pate6 (prostate and testis expressed 6) | no change with or without drug | 1.46 | 0.34 | 1.35 | 1.07
Dbh (dopamine beta hydroxylase) | no change with or without drug | 0.56 | 0.17 | 0.56 | 0.99
Dnajc30 (DnaJ heat shock protein family (Hsp40) member C30) | no change with or without drug | 0.56 | 0.51 | 0.34 | 0.99
Nipsnap2 (nipsnap homolog 2) | no change with or without drug | -0.9 | -0.17 | -0.79 | 0.86
Usp20 (ubiquitin specific peptidase 20) | low cell count with doxorubicin only (active) | -2.14 | 0.34 | -2.36 | 0.75
Slc25a14 | no change with or without drug | 0.45 | -0.17 | 0.67 | 0.98
V1ra8 (vomeronasal 1 receptor, A8) | no change with or without drug | -0.9 | 0 | -0.79 | 0.86
Rasa2 (RAS p21 protein activator 2) | high cell count without drug only | 0.67 | 2.53 | -0.79 | 1
Haus8 (4HAUS augmin-like complex, subunit 8) | no change with or without drug | 0.9 | 0.84 | 0.45 | 1.02
Cul3 (cullin 3) | no change with or without drug | -0.34 | -0.17 | -0.11 | 0.91
Or4n4b (olfactory receptor family 4 subfamily N member 4B) | no change with or without drug | -0.22 | 1.01 | -0.79 | 0.92
Soat2 (sterol O-acyltransferase 2) | no change with or without drug | 0.56 | 0.51 | 0.34 | 0.99
Ctr9 (CTR9 homolog, Paf1/RNA polymerase II complex component) | low cell count with doxorubicin only (active) | -2.14 | -0.84 | -1.69 | 0.75
Myh6 (myosin, heavy polypeptide 6, cardiac muscle, alpha) | no change with or without drug | 1.24 | 0 | 1.46 | 1.05
Ntsr2 (neurotensin receptor 2) | no change with or without drug | 0.67 | -1.85 | 2.36 | 1
Hrc (histidine rich calcium binding protein) | no change with or without drug | 1.12 | -0.84 | 2.02 | 1.04
Ifna1 (interferon alpha 1) | high cell count with and without drug | 2.92 | 2.53 | 1.24 | 1.2
Paqr3 (progestin and adipoQ receptor family member III) | no change with or without drug | 0.22 | 0.17 | 0.22 | 0.96
Fam13b (family with sequence similarity 13, member B) | no change with or without drug | -0.45 | 1.18 | -1.12 | 0.9
Srgap3 (SLIT-ROBO Rho GTPase activating protein 3) | no change with or without drug | -0.9 | 1.01 | -1.46 | 0.86
St6galnac4 | no change with or without drug | -0.22 | -0.51 | 0.22 | 0.92
Matk (megakaryocyte-associated tyrosine kinase) | no change with or without drug | -1.8 | -1.52 | -0.79 | 0.78

3 entries already listed, sorted by “z-score of drug to no-drug ratio”, lowest first.
gene symbol | combined z-score class | viability z-score with doxorubicin | viability z-score without drug | z-score of drug to no-drug ratio | doxorubicin viability vs non-targeting
Fam13b (family with sequence similarity 13, member B) | no change with or without drug | -0.45 | 1.18 | -1.12 | 0.9
Paqr3 (progestin and adipoQ receptor family member III) | no change with or without drug | 0.22 | 0.17 | 0.22 | 0.96
Ifna1 (interferon alpha 1) | high cell count with and without drug | 2.92 | 2.53 | 1.24 | 1.2
